Experimental data published in US20240132579A1 (DOTBIO PTE, published 2024).
These are yes or no findings as the source states them, for the method shown. Some binding calls cover weakened binding; strength is not graded here.

Legend:
[1] = biological target: Biotinylated human VEGF-165 (Acro Biosystem) (human) (UniProt P15692); test: BLI, biotinylated human VEGF-165 on streptavidin tips; DotBody at 250 nM after 1 h at room temperature, 60, 70 or 80 °C and centrifugation
[2] = biological target: Biotinylated human VEGF-165 (Acro Biosystem) (human) (UniProt P15692); test: BLI, biotinylated human VEGF-165 on streptavidin tips, DotBody in solution
[3] = biological target: Biotinylated human VEGF-165 (Acro Biosystem) (human) (UniProt P15692); test: BLI at 250 nM after heat challenge
[4] = biological target: Biotinylated human VEGF-165 (Acro Biosystem) (human) (UniProt P15692); test: BLI (conclusion of the examples)
[5] = biological target: T1, biotinylated murine VEGF-164 (Acro Biosystem) (mouse) (UniProt Q00731); test: BLI (conclusion of the examples)
T1 sequence (biotinylated (site not stated), looked up): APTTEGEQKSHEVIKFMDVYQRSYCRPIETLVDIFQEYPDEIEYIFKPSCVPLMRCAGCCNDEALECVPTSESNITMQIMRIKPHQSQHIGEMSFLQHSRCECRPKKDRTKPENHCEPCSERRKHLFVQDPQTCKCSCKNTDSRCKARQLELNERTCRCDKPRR

[6] = biological target: T1, biotinylated murine VEGF-164 (Acro Biosystem) (mouse); test: BLI, biotinylated murine VEGF-164 on streptavidin tips, DotBody in solution
[7] = biological target: T2, Human VEGF-121 (Acro Biosystems) (human, UniProt P15692 207-395); test: competitive ELISA: VEGFR1 coated on the plate, human VEGF-121 at 0.5 nM pre-mixed with the binder; the blocked partner is VEGFR1
T2 construct: Bought protein; also called human VEGFA
T2 sequence: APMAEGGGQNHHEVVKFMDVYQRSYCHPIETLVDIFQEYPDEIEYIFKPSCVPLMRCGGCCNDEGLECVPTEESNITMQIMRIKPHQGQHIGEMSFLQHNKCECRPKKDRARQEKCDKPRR

[8] = biological target: T2, Human VEGF-121 (Acro Biosystems); test: competitive ELISA: VEGFR1 coated on the plate, human VEGF-121 pre-mixed with the binder; the blocked partner is VEGFR1
[9] = biological target: Biotinylated human VEGF-165 (Acro Biosystem) (human) (UniProt P15692); test: BLI at 250 nM after 1 h heat challenge
[10] = biological target: Biotinylated human VEGF-165 (Acro Biosystem) (human) (UniProt P15692); test: BLI
[11] = biological target: T1, biotinylated murine VEGF-164 (Acro Biosystem) (mouse); test: BLI

Measured: binding

B1: anti-VEGFA DotBody 16C2.1 (VHH)
VHH: EVQLVESGGGLVQPGGSLRLSCAISGFSLAATDIDWVRQAPGKGLEWVARIFSPSDFTDYADSVKGRFTISADTSKNTVYLQMNSLRAEDTAVYYCGRPDTYAYNIFLDTPTYNALHYRGQGTLVTVSS
notes: Humanized, stabilized autonomous VH domain (single domain antibody, 'DotBody') derived from the trastuzumab VH
binds: all assays above

B2: anti-VEGFA DotBody 21A5.1 (VHH)
VHH: EVQLVESGGGLVQPGGSLRLSCAISGFSLVETDIDWVRQAPGKGLEWVARIFLPSGSTYYADSVKGRFTISADTSKNTVYLQMNSLRAEDTAVYYCGSPDTYAYNIFLDTPAYKGLSYRGQGTLVTVSS
not listed: [7]
binds: all other assays above
